Laboratory results: article doi:10.1101/427112
Where two headings read alike, the source gives them in different places. No constants are given. Whether binding was seen depends on the method and setting. In cells and extracts the contact can be indirect. These calls come from enrichment with a bait or labelling near it, and not all partners need be listed. Values belong to the molecule of their own block, whether it stands above or below them.

By UniProt entry, the sequences of proteins in these tests, tags left out. Where a name states a change or a piece, a line headed by the entry shows the natural chain unless it says otherwise. Chains listed by the source or under a name are the forms on record and can include a tag or linker. Residues count along the entry.
integrin β5-BirA* fusion protein (P18084, residues 24-799): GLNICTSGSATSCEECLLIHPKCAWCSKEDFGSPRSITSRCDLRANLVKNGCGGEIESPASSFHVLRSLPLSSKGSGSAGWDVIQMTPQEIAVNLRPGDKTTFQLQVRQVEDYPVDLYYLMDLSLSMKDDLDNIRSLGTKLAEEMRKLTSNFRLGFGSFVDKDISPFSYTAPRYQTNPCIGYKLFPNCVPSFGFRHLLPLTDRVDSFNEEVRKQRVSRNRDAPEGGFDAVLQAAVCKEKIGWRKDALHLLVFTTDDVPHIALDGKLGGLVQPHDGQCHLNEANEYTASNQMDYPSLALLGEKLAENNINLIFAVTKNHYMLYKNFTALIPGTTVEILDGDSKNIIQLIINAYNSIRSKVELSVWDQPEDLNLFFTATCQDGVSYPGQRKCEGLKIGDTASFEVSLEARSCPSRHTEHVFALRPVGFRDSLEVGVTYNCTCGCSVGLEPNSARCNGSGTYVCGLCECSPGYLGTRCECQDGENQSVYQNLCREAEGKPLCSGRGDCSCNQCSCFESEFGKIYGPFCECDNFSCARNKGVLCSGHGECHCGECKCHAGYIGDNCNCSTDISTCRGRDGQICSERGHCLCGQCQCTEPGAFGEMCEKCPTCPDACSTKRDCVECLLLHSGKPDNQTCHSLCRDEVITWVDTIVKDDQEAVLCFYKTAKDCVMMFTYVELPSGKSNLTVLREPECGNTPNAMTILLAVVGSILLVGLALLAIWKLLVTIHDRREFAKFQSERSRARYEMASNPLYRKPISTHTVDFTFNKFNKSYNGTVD
integrin β5-BirA* with Y>A mutation in the membrane-distal NxxY motif (P18084, form named): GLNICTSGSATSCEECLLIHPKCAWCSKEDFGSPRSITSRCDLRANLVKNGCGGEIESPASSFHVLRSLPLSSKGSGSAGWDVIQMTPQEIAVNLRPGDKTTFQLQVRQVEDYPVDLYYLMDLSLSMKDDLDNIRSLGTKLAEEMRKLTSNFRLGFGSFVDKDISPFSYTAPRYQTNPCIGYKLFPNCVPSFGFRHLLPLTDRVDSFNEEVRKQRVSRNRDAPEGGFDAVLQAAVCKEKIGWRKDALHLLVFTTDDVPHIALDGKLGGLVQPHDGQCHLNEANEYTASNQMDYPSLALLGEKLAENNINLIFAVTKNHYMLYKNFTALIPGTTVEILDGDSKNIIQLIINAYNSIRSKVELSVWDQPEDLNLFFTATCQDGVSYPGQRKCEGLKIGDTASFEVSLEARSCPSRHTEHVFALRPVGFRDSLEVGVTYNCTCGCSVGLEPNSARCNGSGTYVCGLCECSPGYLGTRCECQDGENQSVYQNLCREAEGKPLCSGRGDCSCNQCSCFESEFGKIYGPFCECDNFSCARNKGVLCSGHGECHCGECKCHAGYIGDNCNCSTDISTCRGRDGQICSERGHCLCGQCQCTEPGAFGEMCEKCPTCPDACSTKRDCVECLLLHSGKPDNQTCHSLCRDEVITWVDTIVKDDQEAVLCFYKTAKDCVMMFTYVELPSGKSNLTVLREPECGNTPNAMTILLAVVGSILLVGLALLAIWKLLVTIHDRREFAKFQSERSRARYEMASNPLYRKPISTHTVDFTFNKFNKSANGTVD
integrin β5-BirA* with Y>A mutation in the membrane-proximal NPxY motif (P18084, form named): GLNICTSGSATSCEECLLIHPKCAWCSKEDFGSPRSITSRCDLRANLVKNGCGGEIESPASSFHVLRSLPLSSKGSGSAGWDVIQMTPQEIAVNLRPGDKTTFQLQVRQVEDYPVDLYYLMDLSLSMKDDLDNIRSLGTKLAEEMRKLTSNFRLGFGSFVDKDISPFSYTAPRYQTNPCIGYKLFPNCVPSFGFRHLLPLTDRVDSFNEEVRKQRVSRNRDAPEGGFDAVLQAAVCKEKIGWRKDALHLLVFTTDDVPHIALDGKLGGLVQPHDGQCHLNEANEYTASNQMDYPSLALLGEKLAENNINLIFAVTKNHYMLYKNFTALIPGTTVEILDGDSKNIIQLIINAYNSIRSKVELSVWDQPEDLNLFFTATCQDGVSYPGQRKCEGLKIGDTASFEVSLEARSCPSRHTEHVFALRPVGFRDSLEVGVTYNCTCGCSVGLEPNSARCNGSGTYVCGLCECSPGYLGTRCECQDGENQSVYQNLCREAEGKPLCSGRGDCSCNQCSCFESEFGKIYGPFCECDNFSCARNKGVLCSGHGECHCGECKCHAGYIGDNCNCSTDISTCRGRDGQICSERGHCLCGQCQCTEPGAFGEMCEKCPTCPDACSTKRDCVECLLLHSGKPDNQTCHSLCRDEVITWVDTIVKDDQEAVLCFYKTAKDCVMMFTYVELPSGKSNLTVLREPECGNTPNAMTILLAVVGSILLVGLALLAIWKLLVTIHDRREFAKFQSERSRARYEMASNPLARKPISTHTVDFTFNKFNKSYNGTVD
UniProt Q15811: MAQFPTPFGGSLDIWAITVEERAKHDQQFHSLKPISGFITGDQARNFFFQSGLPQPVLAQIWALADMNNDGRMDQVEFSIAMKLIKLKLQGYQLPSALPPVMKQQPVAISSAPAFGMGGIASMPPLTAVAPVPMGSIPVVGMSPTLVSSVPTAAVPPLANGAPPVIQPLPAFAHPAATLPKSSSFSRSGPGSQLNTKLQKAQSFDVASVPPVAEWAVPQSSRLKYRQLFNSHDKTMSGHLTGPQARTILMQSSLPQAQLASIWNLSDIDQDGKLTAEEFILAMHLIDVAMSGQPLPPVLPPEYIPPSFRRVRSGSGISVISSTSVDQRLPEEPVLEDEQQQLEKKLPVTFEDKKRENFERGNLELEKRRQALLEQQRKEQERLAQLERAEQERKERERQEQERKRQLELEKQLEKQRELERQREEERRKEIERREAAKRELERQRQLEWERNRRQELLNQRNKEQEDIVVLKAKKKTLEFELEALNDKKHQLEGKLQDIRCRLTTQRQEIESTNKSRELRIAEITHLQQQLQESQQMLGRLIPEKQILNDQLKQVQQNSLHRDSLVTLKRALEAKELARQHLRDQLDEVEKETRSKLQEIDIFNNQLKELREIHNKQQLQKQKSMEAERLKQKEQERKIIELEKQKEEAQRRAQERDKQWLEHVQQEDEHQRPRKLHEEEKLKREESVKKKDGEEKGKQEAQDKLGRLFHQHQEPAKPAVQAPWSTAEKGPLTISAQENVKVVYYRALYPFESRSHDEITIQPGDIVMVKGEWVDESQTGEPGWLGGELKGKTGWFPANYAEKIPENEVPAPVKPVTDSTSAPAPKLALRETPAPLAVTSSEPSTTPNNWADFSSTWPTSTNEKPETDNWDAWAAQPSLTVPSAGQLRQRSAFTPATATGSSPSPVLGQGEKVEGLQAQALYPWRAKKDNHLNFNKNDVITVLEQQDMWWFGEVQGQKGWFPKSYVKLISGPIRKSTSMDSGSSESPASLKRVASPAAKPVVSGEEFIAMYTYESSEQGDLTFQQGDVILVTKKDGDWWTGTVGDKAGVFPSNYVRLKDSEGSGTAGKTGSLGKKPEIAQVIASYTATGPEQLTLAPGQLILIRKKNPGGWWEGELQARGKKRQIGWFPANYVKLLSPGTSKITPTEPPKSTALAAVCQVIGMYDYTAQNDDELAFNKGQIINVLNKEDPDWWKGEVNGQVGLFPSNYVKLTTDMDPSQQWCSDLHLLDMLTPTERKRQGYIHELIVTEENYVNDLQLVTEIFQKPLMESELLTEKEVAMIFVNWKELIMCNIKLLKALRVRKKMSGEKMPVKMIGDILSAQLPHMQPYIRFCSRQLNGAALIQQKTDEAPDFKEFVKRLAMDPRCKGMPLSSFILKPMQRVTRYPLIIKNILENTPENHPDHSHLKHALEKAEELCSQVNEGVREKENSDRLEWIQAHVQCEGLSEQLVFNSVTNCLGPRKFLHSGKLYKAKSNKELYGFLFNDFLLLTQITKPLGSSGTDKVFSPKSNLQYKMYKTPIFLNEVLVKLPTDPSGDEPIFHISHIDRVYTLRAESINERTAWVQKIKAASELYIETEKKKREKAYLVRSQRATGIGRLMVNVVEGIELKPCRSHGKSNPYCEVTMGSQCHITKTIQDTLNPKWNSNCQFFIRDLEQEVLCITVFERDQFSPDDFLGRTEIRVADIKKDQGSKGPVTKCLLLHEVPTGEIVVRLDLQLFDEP

How the values were obtained:
Assay in all cases: proximity labelling
[1] = biological target: integrin β5-BirA* fusion protein (wild type) (UniProt P18084)
[2] = biological target: integrin β5-BirA* fusion protein (wild type) (UniProt P18084); remark: listed apart in the source
[3] = biological target: integrin β5-BirA* with Y>A mutation in the membrane-distal NxxY motif (N2) (UniProt P18084)
[4] = biological target: integrin β5-BirA* with Y>A mutation in the membrane-proximal NPxY motif (N1) (UniProt P18084)

binding [1]: binds
Molecule: intersectin-1 (from UniProt Q15811 1-1721)

binding [1]: binds | binding [2]: binds | binding [3]: binds
B1: low density lipoprotein receptor adapter protein 1 (protein, UniProt Q5SW96 1-308)
chain: MDALKSAGRALIRSPSLAKQSWGGGGRHRKLPENWTDTRETLLEGMLFSLKYLGMTLVEQPKGEELSAAAIKRIVATAKASGKKLQKVTLKVSPRGIILTDNLTNQLIENVSIYRISYCTADKMHDKVFAYIAQSQHNQSLECHAFLCTKRKMAQAVTLTVAQAFKVAFEFWQVSKEEKEKRDKASQEGGDVLGARQDCTPSLKSLVATGNLLDLEETAKAPLSTVSANTTNMDEVPRPQALSGSSVVWELDDGLDEAFSRLAQSRTNPQVLDTGLTAQDMHYAQCLSPVDWDKPDSSGTEQDDLFSF

binding [2]: binds | binding [4]: binds | binding [3]: binds
B2: Numb (protein, UniProt P49757 1-651)
chain: MNKLRQSFRRKKDVYVPEASRPHQWQTDEEGVRTGKCSFPVKYLGHVEVDESRGMHICEDAVKRLKAERKFFKGFFGKTGKKAVKAVLWVSADGLRVVDEKTKDLIVDQTIEKVSFCAPDRNFDRAFSYICRDGTTRRWICHCFMAVKDTGERLSHAVGCAFAACLERKQKREKECGVTATFDASRTTFTREGSFRVTTATEQAEREEIMKQMQDAKKAETDKIVVGSSVAPGNTAPSPSSPTSPTSDATTSLEMNNPHAIPRRHAPIEQLARQGSFRGFPALSQKMSPFKRQLSLRINELPSTMQRKTDFPIKNAVPEVEGEAESISSLCSQITNAFSTPEDPFSSAPMTKPVTVVAPQSPTFQANGTDSAFHVLAKPAHTALAPVAMPVRETNPWAHAPDAANKEIAATCSGTEWGQSSGAASPGLFQAGHRRTPSEADRWLEEVSKSVRAQQPQASAAPLQPVLQPPPPTAISQPASPFQGNAFLTSQPVPVGVVPALQPAFVPAQSYPVANGMPYPAPNVPVVGITPSQMVANVFGTAGHPQAAHPHQSPSLVRQQTFPHYEASSATTSPFFKPPAQHLNGSAAFNGVDDGRLASADRHTEVPTGTCPVDPFEAQWAALENKSKQRTNPSPTNPFSSDLQKTFEIEL
